Measurements reported in patent US20170000132A1, “BENZOXABOROLE FUNGICIDES” (SYNGENTA PARTICIPATIONS AG, priority 2013, published 2017).
Some entries share one result that the patent states for a list of compounds. For at least one compound, name, drawing or mass did not settle the structure.

Assays:
[1] = system: Glomerella lagenarium (Colletotrichum lagenarium); test: Glomerella lagenarium / liquid culture (anthracnose); assay type: cell-based; details: 200 ppm, PDB, 3-4 days after application
Pythium ultimum = Pythium ultimum / liquid culture (seedling damping off); assay type: cell-based; details: 200 ppm, potato dextrose broth, 2-3 days after application

SMILES	disease control (inhibition of growth, photometric) [1]	disease control (inhibition of growth, photometric) (Pythium ultimum)
NC(=O)C(=O)NN=Cc1cc2c(cc1F)COB2O (single isomer, unassigned) [Compound 93]	at least 80%	at least 80%
OB1OCc2cccc(C=NOCc3c(Cl)cccc3Cl)c21 (single isomer, unassigned) [Compound 338]	at least 80%	
CC(ON=Cc1cc(F)cc2c1B(O)OC2)C(=O)O (single isomer, unassigned) [Compound 278]	at least 80%	at least 80%
CNC(=S)NN=Cc1cc2c(cc1Cl)COB2O (single isomer, unassigned) [Compound 72]	at least 80%	at least 80%
O=C(NN=Cc1cc2c(cc1F)COB2O)c1ccccc1[N+](=O)[O-] (single isomer, unassigned) [Compound 86]	at least 80%	at least 80%
OB1OCc2cc(Cl)c(C=NNc3nc4ccccc4o3)cc21 (single isomer, unassigned) [Compound 12]	at least 80%	at least 80%
O=C(NN=Cc1cc2c(cc1Cl)COB2O)c1cc(Cl)nc(Cl)c1 (single isomer, unassigned) [Compound 26]	at least 80%	at least 80%
OB1OCc2cc(F)c(C=NNCc3ccccc3)cc21 (single isomer, unassigned) [Compound 94]	at least 80%	at least 80%
OB1OCc2cc(Cl)c(C=NNc3cc(F)ccc3F)cc21 (single isomer, unassigned) [Compound 17]	at least 80%	at least 80%
O=C(O)Cc1ccccc1CON=Cc1cc2c(cc1Cl)COB2O (single isomer, unassigned) [Compound 60]	at least 80%	at least 80%
O=[N+]([O-])c1cccc(NN=Cc2cc3c(cc2F)COB3O)c1 (single isomer, unassigned) [Compound 113]	at least 80%	
OB1OCc2cc(Cl)c(C=NNC(=S)NC3CCCCC3)cc21 (single isomer, unassigned) [Compound 38]	at least 80%	at least 80%
C=CCNC(=S)NN=Cc1cc(F)cc2c1B(O)OC2 (mixture of isomers) [Compound 268]	at least 80%	at least 80%
OB1OCc2cccc(C=NNc3ccc(C(F)(F)F)cc3)c21 (single isomer, unassigned) [Compound 319]	at least 80%	
OB1OCc2cc(Cl)c(C=NNc3ccnc(Cl)c3)cc21 (single isomer, unassigned) [Compound 24]	at least 80%	at least 80%
O=C(NN=Cc1cc2c(cc1Cl)COB2O)c1ccnc(Cl)c1 (single isomer, unassigned) [Compound 19]	at least 80%	at least 80%
OB1OCc2cc(F)c(C=NNc3ccc(Cl)cc3Cl)cc21 (single isomer, unassigned) [Compound 87]	at least 80%	at least 80%
O=[N+]([O-])c1cccc(NN=Cc2cc3c(cc2Cl)COB3O)c1 (single isomer, unassigned) [Compound 31]	at least 80%	at least 80%
Cn1cc(C(=O)NN=Cc2cc3c(cc2F)COB3O)c(C(F)(F)F)n1 (single isomer, unassigned) [Compound 116]	at least 80%	at least 80%
O=C(NN=Cc1cc2c(cc1F)COB2O)c1ccnc(Cl)c1 (single isomer, unassigned) [Compound 98]	at least 80%	at least 80%
O=C(NN=Cc1cc2c(cc1Cl)COB2O)c1ccc2ccccc2n1 (single isomer, unassigned) [Compound 3]	at least 80%	at least 80%
O=[N+]([O-])c1ccc(ON=Cc2cc3c(cc2F)COB3O)cc1 (single isomer, unassigned) [Compound 146]	at least 80%	at least 80%
O=C(NN=Cc1cc2c(cc1F)COB2O)c1ccc(Cl)cc1 (single isomer, unassigned) [Compound 77]	at least 80%	at least 80%
O=C(NN=Cc1cc2c(cc1Cl)COB2O)c1cccnc1 (single isomer, unassigned) [Compound 5]	at least 80%	at least 80%
CCOC(=O)CNN=Cc1cc(F)cc2c1B(O)OC2 (single isomer, unassigned) [Compound 256]	at least 80%	at least 80%

SMILES	disease control (inhibition of growth, photometric) [1]	disease control (inhibition of growth, photometric) (Pythium ultimum)
Cc1ccc(NN=Cc2cccc3c2B(O)OC3)cc1 (single isomer, unassigned) [Compound 309]	at least 80%	at least 80%
OB1OCc2cc(Cl)c(C=NNC(=S)NCc3ccccc3)cc21 (single isomer, unassigned) [Compound 73]	at least 80%	at least 80%
CNC(=S)NN=Cc1cc(F)cc2c1B(O)OC2 (mixture of isomers) [Compound 298]	at least 80%	at least 80%
O=C(NN=Cc1cc2c(cc1Cl)COB2O)c1ccccc1[N+](=O)[O-] (single isomer, unassigned) [Compound 8]	at least 80%	at least 80%
O=C(NN=Cc1cc2c(cc1F)COB2O)Nc1ccccc1 (single isomer, unassigned) [Compound 80]	at least 80%	at least 80%
Cc1cc(C=NNc2cc(F)ccc2F)c2c(c1)COB2O [Compound 452]	at least 80%	
OB1OCc2cc(Cl)c(C=NNc3ccc(F)c(C(F)(F)F)c3)cc21 (single isomer, unassigned) [Compound 23]	at least 80%	at least 80%
CC(C)NN=Cc1cc2c(cc1Cl)COB2O (single isomer, unassigned) [Compound 25]	at least 80%	at least 80%
C=CCNC(=S)NN=Cc1cc2c(cc1Cl)COB2O (single isomer, unassigned) [Compound 36]	at least 80%	at least 80%
OB1OCc2cc(F)c(C=NNc3c(Cl)cc(C(F)(F)F)cc3Cl)cc21 (single isomer, unassigned) [Compound 108]	at least 80%	
OB1OCc2cc(F)c(C=NNC(=S)NC3CCCCC3)cc21 (single isomer, unassigned) [Compound 120]		at least 80%
COc1ccc(NN=Cc2cc3c(cc2F)COB3O)cc1 (single isomer, unassigned) [Compound 107]		at least 80%
OB1OCc2cc(F)c(C=NNc3ccnc(Cl)c3)cc21 (single isomer, unassigned) [Compound 103]		at least 80%
C=CCNC(=S)NN=Cc1ccc2c(c1)COB2O (single isomer, unassigned) [Compound 390]		at least 80%
O=C(NN=Cc1cc(F)cc2c1B(O)OC2)c1ccc2ccccc2n1 (single isomer, unassigned) [Compound 231]		at least 80%
OB1OCc2cccc(C=NNC(=S)Nc3ccccc3)c21 (single isomer, unassigned) [Compound 321]		at least 80%
CCOC(=O)NN=Cc1cccc2c1B(O)OC2 (single isomer, unassigned) [Compound 311]		at least 80%
C#CCOc1ccc(CON=Cc2cc(Cl)cc3c2B(O)OC3)cc1OC (single isomer, unassigned) [Compound 219]		at least 80%
O=C(NN=Cc1cccc2c1B(O)OC2)c1ccc(Cl)cc1 (single isomer, unassigned) [Compound 302]		at least 80%
O=C(NN=Cc1cc2c(cc1F)COB2O)c1cc(Cl)nc(Cl)c1 (single isomer, unassigned) [Compound 106]		at least 80%
O=[N+]([O-])c1ccccc1NN=Cc1cc(Cl)cc2c1B(O)OC2 (single isomer, unassigned) [Compound 172]		at least 80%
C#CCOc1ccc(CON=Cc2cc(F)cc3c2B(O)OC3)cc1OC (single isomer, unassigned) [Compound 296]		at least 80%
OB1OCc2cc(C=NNC(=S)Nc3ccccc3)ccc21 (single isomer, unassigned) [Compound 389]		at least 80%
OB1OCc2cc(Cl)cc(C=NNc3ccc(Cl)cc3Cl)c21 (single isomer, unassigned) [Compound 164]		at least 80%
